Assay results taken from the supplement of paper PMC3334620.
The full ranking holds about 33,000 sequences; the median of “E-score (-0.5 to 0.5)” is about -0.0059, and the highest 2% start at about 0.26. This is one part of the list.

Target: T1, Cin5 (UniProt P40917)
T1 sequence: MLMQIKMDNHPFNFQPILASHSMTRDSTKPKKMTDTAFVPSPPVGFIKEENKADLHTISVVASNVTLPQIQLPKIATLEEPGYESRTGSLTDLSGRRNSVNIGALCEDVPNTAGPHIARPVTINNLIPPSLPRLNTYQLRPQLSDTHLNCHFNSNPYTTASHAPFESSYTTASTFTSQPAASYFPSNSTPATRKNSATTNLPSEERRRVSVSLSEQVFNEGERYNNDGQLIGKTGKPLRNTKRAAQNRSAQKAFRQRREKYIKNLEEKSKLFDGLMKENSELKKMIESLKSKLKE
Test: PBM E-score (8-mer binding enrichment) (E-score (-0.5 to 0.5)); higher = stronger / more preferred TF binding
Conditions: protein concentration: 100 nM; construct: GST-full length
Summary of the method: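 Yeast transcription factors, full-length or as DNA-binding domains, were expressed with a GST tag using PURExpress in vitro transcription/translation. At about 100-200 nM they were applied to universal all-10-mer Agilent arrays, double-stranded by primer extension on fresh or once-stripped slides. Fluorescent anti-GST detected bound protein, and masliner normalised the scans. E-scores for ungapped eight-base words, pooled with reverse complements, came from the Universal PBM Analysis Suite.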

| Sequence | PBM E-score |
| --- | --- |
| GTCGGTCA | -0.0877 |
| CCCGTTCG | -0.0149 |
| ACCTCCAT | -0.116 |
| AGACTGAA | -0.0521 |
| AACTTGGT | 0.131 |
| AAAGTCCG | -0.203 |
| AAAGAGTT | -0.0825 |
| AAACAACC | 0.117 |
| GTTAGAAA | 0.0402 |
| GTGAGAAA | 0.0748 |
| CCGCCAAC | -0.0891 |
| CCACGGGG | -0.282 |
| AGAGAGGA | 0.00084 |
| CTTAAGCA | -0.00662 |
| ATTTCTGC | 0.247 |
| GCCGTACA | 0.0522 |
| CCCGCATA | 0.187 |
| CTCTCAGA | -0.231 |
| ACTCGTGG | -0.041 |
| CAGATAAC | 0.168 |
| AGCCAATG | -0.073 |
| ACCGTTAG | -0.0991 |
| CCTATTAA | 0.111 |
| AATATGAC | 0.163 |
| ACCGGTAA | -0.0426 |

| Sequence | PBM E-score |
| --- | --- |
| GTGTCGTA | 0.0698 |
| GAGGAGGA | -0.291 |
| CCCTGCCG | -0.205 |
| AATTATTG | 0.212 |
| GCACCTGA | -0.0738 |
| GCAAGGAC | -0.0776 |
| AAGACAAC | 0.274 |
| GCGGAAAA | 0.213 |
| ACCATGAC | 0.12 |
| AAGTCTAG | -0.264 |
| ACACAGTA | -0.0345 |
| ATTTGACC | 0.0627 |
| ACCCTGAT | -0.0343 |
| AACGATGG | -0.021 |
| ACAGAACT | 0.0514 |
| AATCTAAA | 0.0428 |
| CTGATATC | 0.0795 |
| AGATGAGA | -0.071 |
| ATCACCAC | 0.204 |
| ATAAGGGC | 0.112 |
| ACTTAGCG | 0.181 |
| AGGCAAAC | 0.0172 |
| CAGTAGTC | -0.238 |
| GTCGAACA | 0.0829 |
| ACTTTGAA | -0.0699 |

| Sequence | PBM E-score |
| --- | --- |
| CACCGCTC | -0.048 |
| ATGATATG | 0.289 |
| GTGCACGA | -0.0614 |
| CAGAGAGG | -0.0926 |
| GGAGTGAC | 0.0786 |
| CCTTCTCG | -0.251 |
| ATTGACTA | 0.0626 |
| CCAGGGAG | -0.295 |
| CTCTTGGA | -0.0707 |
| GAAATCTC | -0.0158 |
| GGCCGTCA | -0.15 |
| AGAAGGGG | -0.205 |
| CATCCTTA | -0.0316 |
| CCTGCGCG | 0.00073 |
| CCGCCTCA | -0.235 |
| ACATTCAC | 0.093 |
| CGAAGATA | 0.266 |
| ACGTTAAC | 0.0708 |
| ATTTGATG | 0.0427 |
| CCACCATA | 0.0512 |
| ACGCTCTG | -0.193 |
| GTCTCCCA | -0.151 |
| AAACACTC | 0.205 |
| AGGATCTC | -0.145 |
| CAACCGAC | 0.16 |

| Sequence | PBM E-score |
| --- | --- |
| CTGCACAA | -0.064 |
| AGCACACA | -0.064 |
| ATGGGTGC | 0.00547 |
| CTTCGTGA | 0.0432 |
| AGGAGTCC | -0.266 |
| ATCATCCG | -0.0161 |
| TCGGCACA | -0.116 |
| GACGGCCC | -0.339 |
| ACCCGGCT | -0.173 |
| CCGAGTTA | -0.00537 |
| TCTGCACA | -0.00335 |
| GACTGTTA | -0.0856 |
| CTGTTCCA | -0.0206 |
| AAGCAGGC | -0.264 |
| CCTCCGAG | -0.16 |
| TGCAAGAA | 0.0873 |
| GAATGGAA | 0.181 |
| GGATCGGA | 0.0109 |
| AAGGGTAA | -0.00876 |
| GATGGTCA | 0.00114 |
| ACACGAGG | -0.161 |
| CCGAACGC | 0.0758 |
| AAATCAGG | -0.0565 |
| CCAGAGGA | -0.156 |
| CGAAATCG | 0.0906 |

| Sequence | PBM E-score |
| --- | --- |
| CTTAGATC | -0.0574 |
| CTGAACAA | 0.13 |
| CATGGACG | -0.108 |
| CGCGCCGC | 0.0181 |
| CTGTGCCA | -0.104 |
| CGCTCCCG | -0.183 |
| ACCAACCC | -0.0705 |
| ACGTCGGA | -0.0968 |
| ACAGCTGA | -0.0382 |
| AGAATTAT | 0.122 |
| AACGCGTG | 0.0107 |
| CTTAAAAA | 0.0411 |
| CTTCCTCC | -0.301 |
| AGGTTCAG | -0.0408 |
| AAGTCACC | -0.081 |
| CTAAGCTA | 0.162 |
| ACTGCTCC | -0.0972 |
| AGTCGGGC | -0.0257 |
| GGAGCTGA | -0.167 |
| AAGCAGTG | 0.116 |
| CGAAGCCC | -0.18 |
| GGCCACAA | -0.0804 |
| GAAACGGA | 0.242 |
| CGCAGGCC | -0.108 |
| CGCAGCGA | -0.0737 |

| Sequence | PBM E-score |
| --- | --- |
| CGCGCGTC | 0.108 |
| ATTGTCGC | 0.0313 |
| ATATGAGG | 0.145 |
| CCCCGCAG | -0.0807 |
| CCTCTATA | -0.0655 |
| ACGAAAAA | 0.0429 |
| CCGGCACG | -0.178 |
| GGGTCCCA | -0.158 |
| CGGCTAAG | -0.025 |
| AAAGCTAG | -0.103 |
| CTCGAGGC | 0.0186 |
| ACTGTATG | -0.0445 |
| CGGCCAGA | -0.061 |
| ACGGCTAG | -0.254 |
| CCTGATGC | -0.0117 |
| AACCCATT | 0.114 |
| GGTGACTA | 0.0177 |
| AAGAGTCG | 0.0162 |
| AGGTGACG | -0.112 |
| CCCGAGAA | 0.101 |
| ATTGAACA | -0.00138 |
| ATACCCAG | -0.105 |
| GGGATCCA | -0.0171 |
| CACGTCAC | 0.0307 |
| CGTGTAGA | -0.0283 |

| Sequence | PBM E-score |
| --- | --- |
| TGCGAGCA | 0.067 |
| CAATATAA | 0.295 |
| CGTACGGC | -0.128 |
| ATATAACG | 0.273 |
| CCCCCGGA | -0.336 |
| ACCCTTAT | 0.116 |
| AAAATTCG | 0.131 |
| AATCGCGC | 0.196 |
| CGCGGTGA | 0.0115 |
| GAAGCAAC | 0.0134 |
| AACGCGTC | 0.00298 |
| CAACAGAG | 0.0156 |
| AAAACATC | 0.0188 |
| GCGAAATA | 0.0667 |
| CTGTGGGC | -0.0963 |
| GGCACCGA | -0.109 |
| CCATACCC | -0.126 |
| CGGAGACA | -0.0102 |
| AGGAGGGC | -0.315 |
| CTGGGAGC | -0.322 |
| CCATTCCA | 0.0151 |
| GATATACC | 0.151 |
